# Values quoted from earlier work as cited in patent US20090062242A1, “METHODS AND COMPOSITIONS FOR TREATING GASTROINTESTINAL CONDITIONS” (AGI Therapeutics plc, priority 2007, published 2009).
# Some entries share one result that the patent states for a list of compounds.
# Test system: P-glycoprotein
# Settings: procedure of Varma & Panchagnula; rat ileum segment, pH 7.4, quinidine 200 μM; value lies between 0 and 1
compound,measurement,value
Nc1ccc(C(=O)O)c(O)c1 [4-aminosalicylic acid],efflux inhibition ratio (EIR),less than 0.4
